The assay concerns hiPSC-derived 3D neurospheres. The experiment in a line: cells. The note with it: Homo sapiens, 72 h. The assay is classed as cell-based. The procedure: After thawing, NSCs (generated as detailed above) were cultured on POL/L (0.002%/1 µg/cm^2) coated plates (50,000 cells/cm^2). When reached 100% confluence NSCs were propagated with Accutase treatment and single-cell suspension was plated onto a low-adherent 96-well plate with 10,000 cells/well in NMM medium. […] Samples were collected at Day 0 (D0), Day 2 (D2), and weekly intervals from the end of the 1st week (D7) until the end of the 6th week (D14, D21, D28, D35, and D42).
Eleven well-known compounds were tested in 7 different concentrations to generate concentration-response curves. The tested compounds with the used concentrations are detailed in Table S3. […] In each assay plate, 4 technical replicates were applied from each sample and 3 biological replicate assays were run (n = 3). The 3D cell cultures were exposed to the toxicants for 72 h (exposure schemes are detailed in Figure 5A or Figure 6A or Figure 7A). Vehicle control was used as a regular medium supplemented with 0.1% DMSO.
ATP viability assay was performed with CellTiter-Glo® 3D Cell Viability Assay, according to the manufacturer’s protocol (Promega). Neurospheres were lysed with 100 μL CellTiter-Glo® 3D Reagent for 60 min at RT. Luminescence signal was recorded with a Thermo VarioScan Flash (Thermo Fisher Scientific) plate reader.
All results were analyzed using Prism 5 (GraphPad Software, La Jolla, CA, USA) and handled in Microsoft Office 2010 (Microsoft, Redmond, WA, USA) software. For normalization of the concentration response, the average values of positive control were used as 0% and the average of vehicle control served as 100%. Four parameter curve fitting methods were used to determine EC10 and EC50 values, where the data on the graphs represent the average of three biological replicates. The “n” value corresponds to the number of biological replicates for each tested concentration. Analysis of data is presented as the mean ± SEM. Significance of data was determined with paired T test for RT-qPCR (* p < 0.01) and with One-way ANOVA for concentration response (* p < 0.05; ** p < 0.01).

pEC50: −log10 of the molar value. Like-named read-outs stand apart in the source and are kept apart here.

As a reminder, the EC10 is the point of the concentration-response curve where the effect stands at 10%. In general, pEC50 refers to the EC50 on a negative log10 scale, so that one unit is a factor of ten. With `COc1cc2c(c(OC)c1OC)-c1ccc(OC)c(=O)cc1[C@@H](NC(C)=O)CC2` [Colchicine, (S)-N-(5,6,7,9-Tetrahydro-1,2,3,10-tetramethoxy-9-oxobenzo[a]heptalen-7-yl)acetamide], the EC10 (read-out: EC10 (cell viability), D28 3D neurospheres, 72 h exposure) is 0.000692 µM. For the same compound, the pEC50 is, setting by setting: (read-out: EC50 (cell viability), D21 3D neurospheres, 72 h exposure) 6.49; (read-out: EC50 (cell viability), D28 3D neurospheres, 72 h exposure) 6.64; (read-out: EC50 (cell viability), D42 3D neurospheres, 72 h exposure) 6.92.

The values above are taken from PMC7290365, “Human Induced Pluripotent Stem Cell-Derived 3D-Neurospheres Are Suitable for Neurotoxicity Screening” (Cells, 2020).
